Laboratory results from paper PMC12224998.
These are yes or no findings as the source states them, for the method shown. In cells and extracts the contact can be indirect. Some entries that bind do so weakly or less than the wild type.

Chains of the proteins cited; added tags and fusions are not shown. Residues count along the entry.
UniProt P15941, residues 24-1255: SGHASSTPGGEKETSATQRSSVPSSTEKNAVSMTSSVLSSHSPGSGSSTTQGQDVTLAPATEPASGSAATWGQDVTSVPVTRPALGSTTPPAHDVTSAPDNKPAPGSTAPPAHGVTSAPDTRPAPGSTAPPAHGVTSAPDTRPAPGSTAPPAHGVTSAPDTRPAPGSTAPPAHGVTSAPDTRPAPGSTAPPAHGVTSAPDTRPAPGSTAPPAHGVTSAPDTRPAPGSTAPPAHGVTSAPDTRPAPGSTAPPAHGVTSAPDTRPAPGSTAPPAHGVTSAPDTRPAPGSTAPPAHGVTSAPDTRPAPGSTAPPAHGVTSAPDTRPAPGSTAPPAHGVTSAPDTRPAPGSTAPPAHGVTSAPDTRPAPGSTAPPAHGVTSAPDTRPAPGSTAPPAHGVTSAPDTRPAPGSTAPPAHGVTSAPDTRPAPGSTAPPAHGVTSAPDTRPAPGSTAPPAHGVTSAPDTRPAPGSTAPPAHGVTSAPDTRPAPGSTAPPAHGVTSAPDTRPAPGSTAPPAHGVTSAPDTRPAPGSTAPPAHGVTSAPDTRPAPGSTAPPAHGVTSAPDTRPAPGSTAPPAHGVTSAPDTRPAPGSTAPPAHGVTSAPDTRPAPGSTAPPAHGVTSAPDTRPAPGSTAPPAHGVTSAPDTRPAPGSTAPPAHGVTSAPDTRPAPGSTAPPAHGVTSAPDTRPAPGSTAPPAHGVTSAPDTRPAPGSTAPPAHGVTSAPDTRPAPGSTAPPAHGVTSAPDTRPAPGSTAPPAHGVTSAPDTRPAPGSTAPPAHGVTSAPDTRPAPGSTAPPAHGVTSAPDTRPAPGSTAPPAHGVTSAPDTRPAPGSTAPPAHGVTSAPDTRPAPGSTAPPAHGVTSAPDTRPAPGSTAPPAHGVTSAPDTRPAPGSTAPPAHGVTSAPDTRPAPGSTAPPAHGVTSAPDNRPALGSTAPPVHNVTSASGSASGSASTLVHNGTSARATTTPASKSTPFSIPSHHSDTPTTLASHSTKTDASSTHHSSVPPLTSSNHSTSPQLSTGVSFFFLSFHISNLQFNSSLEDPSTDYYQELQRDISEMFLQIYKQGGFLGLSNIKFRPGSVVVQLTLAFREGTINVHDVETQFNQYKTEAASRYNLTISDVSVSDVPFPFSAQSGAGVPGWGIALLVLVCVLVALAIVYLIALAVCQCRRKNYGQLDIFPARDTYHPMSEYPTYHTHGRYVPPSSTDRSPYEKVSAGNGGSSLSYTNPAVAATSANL
UniProt P30153: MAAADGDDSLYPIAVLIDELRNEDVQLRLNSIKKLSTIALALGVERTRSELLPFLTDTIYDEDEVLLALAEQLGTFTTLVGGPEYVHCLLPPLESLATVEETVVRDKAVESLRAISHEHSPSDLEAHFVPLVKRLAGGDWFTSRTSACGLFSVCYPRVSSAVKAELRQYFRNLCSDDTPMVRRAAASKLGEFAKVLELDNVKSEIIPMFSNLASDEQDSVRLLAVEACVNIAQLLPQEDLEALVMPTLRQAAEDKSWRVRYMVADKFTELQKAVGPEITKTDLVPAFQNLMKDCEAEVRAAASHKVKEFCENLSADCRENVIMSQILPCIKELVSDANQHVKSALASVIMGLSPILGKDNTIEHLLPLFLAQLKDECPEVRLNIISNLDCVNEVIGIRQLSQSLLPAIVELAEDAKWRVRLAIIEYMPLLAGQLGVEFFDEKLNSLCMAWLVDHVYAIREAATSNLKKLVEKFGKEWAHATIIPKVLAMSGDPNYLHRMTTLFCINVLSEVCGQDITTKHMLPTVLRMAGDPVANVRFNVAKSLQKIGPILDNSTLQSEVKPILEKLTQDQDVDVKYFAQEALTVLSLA
UniProt Q15172: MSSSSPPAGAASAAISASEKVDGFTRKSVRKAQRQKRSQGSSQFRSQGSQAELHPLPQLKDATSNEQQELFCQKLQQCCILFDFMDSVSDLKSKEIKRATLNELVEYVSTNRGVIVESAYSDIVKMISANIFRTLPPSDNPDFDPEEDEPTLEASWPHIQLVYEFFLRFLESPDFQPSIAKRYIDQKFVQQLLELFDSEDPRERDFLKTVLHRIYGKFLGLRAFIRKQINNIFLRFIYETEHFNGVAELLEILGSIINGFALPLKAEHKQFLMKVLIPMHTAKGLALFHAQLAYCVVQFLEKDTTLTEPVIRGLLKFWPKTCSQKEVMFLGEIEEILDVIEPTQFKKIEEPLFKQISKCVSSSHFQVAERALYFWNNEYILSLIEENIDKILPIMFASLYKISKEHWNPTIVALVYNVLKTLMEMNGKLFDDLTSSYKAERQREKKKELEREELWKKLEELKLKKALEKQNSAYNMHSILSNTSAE

Biological target: MUC1 full length with HA tag at the C-terminal (UniProt P15941)
Assay: co-IP; MUC1-HA-overexpressing HEK293T cells; NETN150 lysis buffer, antibody overnight at 4 °C, protein A/G plus agarose, western blot (Figure S3C)

With “PP2A Aα subunit (from UniProt P30153 1-589)” the binding was “binds”.

“PP2A B56α subunit (from UniProt Q15172 1-486)” was tested, and the binding was “binds”.
